Assay results as given in US20240238211A1, “ISOQUINOLINE-STABILIZED LIPID NANOPARTICLE FORMULATIONS” (ModernaTX, Inc., priority 2021, published 2024).
At least one compound was matched to its structure with a doubt left.

Tested on: mRNA
Test: mRNA stabilization: main peak purity by RP-HPLC (Example 1)
Format: physicochemical
Conditions: LNP mRNA 0.2 mg/mL in buffer, T0, 3-day, 7-day (berberine, palmatine); buffered mRNA, 5 days at 50° C. (coralyne, palmatine)
Source text: mRNA purity can be determined by reverse phase high-performance liquid chromatography (RP-HPLC) size based separation. This method can be used to assess mRNA integrity by a length-based gradient RP separation and UV detection of RNA at 260 nm. As used herein “main peak” or “main peak purity” refers to the RP-HPLC signal detected from mRNA that corresponds to the full size mRNA molecule loaded within a given LNP formulation. mRNA purity can also be assessed by fragmentation analysis. Fragmentation analysis (FA) is a method by which nucleic acid (e.g., mRNA) fragments can be analyzed by capillary electrophoresis. Fragmentation analysis involves sizing and quantifying nucleic acids (e.g., mRNA), for example by using an intercalating dye coupled with an LED light source. Such analysis may be completed, for example, with a Fragment Analyzer from Advanced Analytical Technologies, Inc. Berberine USP was combined with an LNP containing mRNA (0.2 mg/ml in buffer) in amounts corresponding to the concentrations reported in FIG. 2. Main peak purity was measured by RP-HPLC at T0, 3-day, and 7-day. See, FIG. 2. Palmatine USP was combined with an LNP containing mRNA (0.2 mg/mL in buffer) in amounts corresponding to the concentrations reported in FIG. 3. Main peak purity was measured by RP-HPLC at T0, 3-day, and 7-day. […] After storage for 5 days at 50° C., main peak purity was measured by RP-HPLC. […]

## COc1cc2cc3c4cc(OC)c(OC)cc4cc[n+]3c(C)c2cc1OC [coralyne]
  effect on mRNA (main peak purity by RP-HPLC): stabilizing effect
